Source: PMC11150584
These are yes or no findings as the source states them, for the method shown. In cells and extracts the contact can be indirect. Some results given as binding are weak or reduced against the parent protein; the word gives no strength.

By UniProt entry, the sequences of proteins in these tests, tags left out.
UniProt P18266: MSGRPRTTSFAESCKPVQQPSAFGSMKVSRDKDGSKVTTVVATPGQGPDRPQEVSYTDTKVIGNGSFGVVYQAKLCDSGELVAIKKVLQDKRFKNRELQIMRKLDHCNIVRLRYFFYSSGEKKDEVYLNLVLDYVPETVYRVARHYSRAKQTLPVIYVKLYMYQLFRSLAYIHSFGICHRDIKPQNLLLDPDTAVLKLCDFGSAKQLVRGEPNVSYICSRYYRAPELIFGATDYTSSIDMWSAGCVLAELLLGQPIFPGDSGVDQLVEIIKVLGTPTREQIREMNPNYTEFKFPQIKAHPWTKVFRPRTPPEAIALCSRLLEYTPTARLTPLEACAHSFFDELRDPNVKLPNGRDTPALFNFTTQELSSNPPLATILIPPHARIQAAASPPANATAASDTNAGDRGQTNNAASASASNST

Target: Glycogen synthase kinase-3β (GSK-3β) (rat (endogenous in P7 Sprague-Dawley rat brain)) (UniProt P18266)
Assay: co-IP; P7 rat brain lysates (1.0 mg total protein, RIPA buffer) of control and ketamine-treated rats (20 mg/kg at 90 min intervals over 6 h); precleared with protein A/G agarose; anti-GSK-3β antibody overnight, protein A/G agarose 2 h at 4°C; blot with anti-DISC1 and anti-GSK-3β; negative control without the anti-GSK-3β antibody

B1: Disrupted in schizophrenia-1 (DISC1) (protein, UniProt Q810H6 1-846)
chain: MQGAGSRGAWIHSPSHCPGNGHGSPPAVAPQRRRLTRRPGYMRSTASPGIGFLSPAVGMPRPISAGLTGQEFYPSQSKARQCSLDLRSHCQDSLVGNPFLKGSLGPAVTSVGHLHPAQGSMRERMVHSGVHSGNDRRQSERLTGDSGCRQEFLSSDSSKSLASSLDVAWSKGSRGLKTVRPLVSPASNGPVDIPSLPGFQDTFTSNFSFIRLSLGAAGERGEAEGCLPSREAEPLHQSPQEMAAEGSGSDRPHGEPRHLWTFSLHAAPGLVDLAQGTRSNRQPECGMVSSSDAGFSSQDASPAGGRSDQDGGWADAHGWHALLREWEPMLQDYLLSNRRQLEVTSLILKLQKLQEKAVEDGDYDMAETLRQRLEDLEQEKGRLPWALPSQQPALRSFLGYLATQTHAALHGAPQRAGSDDPEAPLEGQRRTTAQDSLPGLAVTRRDWLMREKEQLQKEIEALRARVSVLEAKEQRLSQELEDQEMLLRWQGCDQMALVAQLSPGQLQEVSKALGETLTSARWAPFRVEPPETLRSLRERTKSLDLAVRELTEQVCSGEKLCSSLRKRLADLDTRLPALLEAKMLALSGSCFSTAKELAEEIWAVSSEREGLEMFLGRLLALSSRNTRRLGSVKEDYLRCRQDLALQEAAHKTRVKANTVKCTEVLEGQLSCCRCPLLERVWKADLEACQLLMQSLEIQEAGSSSHVEDEKQVHSTGEAAQTAALAVPRTPHPEEEKSPLQVLCEWNTYSASLPHCAAGLWKEESHVVFAEVGDKCEAIGMRLLHLEDQLLGAMHGHDEALFQSLQGELQMVKETLQTMFLQLQPAKEAGGEASASYSTAGAQEAED
  binding: binds
